Data reported in PubChem BioAssay AID651803 (National Center for Advancing Translational Sciences (NCATS), 2012).
Out of some 1,200 compounds screened, fewer than 10 were called active. The call rests on the fitted dose curve; in most records, active means well fitted curve in the direction sought with a large enough effect; inconclusive means small, poorly fitted or top-dose-only effect, or another doubt; inactive means no such curve, though single readings can be large or run the other way. The list shows a part of the results.

The chains behind the UniProt entries cited, without tags or fusion partners. Where a name states a change or a piece, a line headed by the entry shows the natural chain unless it says otherwise.
UniProt P11308: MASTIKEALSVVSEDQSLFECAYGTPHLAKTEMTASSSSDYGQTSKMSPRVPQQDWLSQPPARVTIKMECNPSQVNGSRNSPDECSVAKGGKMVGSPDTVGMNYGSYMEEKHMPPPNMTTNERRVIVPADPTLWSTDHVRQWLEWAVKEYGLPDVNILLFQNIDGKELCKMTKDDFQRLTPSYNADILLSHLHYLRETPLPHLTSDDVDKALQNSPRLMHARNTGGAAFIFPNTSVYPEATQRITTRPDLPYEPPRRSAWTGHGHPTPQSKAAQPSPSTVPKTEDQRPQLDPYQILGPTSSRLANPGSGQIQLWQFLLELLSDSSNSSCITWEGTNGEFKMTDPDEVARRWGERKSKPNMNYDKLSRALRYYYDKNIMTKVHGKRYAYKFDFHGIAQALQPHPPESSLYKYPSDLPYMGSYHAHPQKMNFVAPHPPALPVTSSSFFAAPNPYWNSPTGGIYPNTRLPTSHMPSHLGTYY

Target: Transcriptional regulator ERG (Homo sapiens) (UniProt P11308)
Test: qHTS for Small Molecule Inhibitors of the ERG Ets/DNA interaction: TR assay against cherry picks; further: % of control where 0% means no effect
Conditions: ERG Ets domain-DNA fluorescence polarization, Texas red probe; at 154 µM (top of the series)
Procedure, shortened: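 Polarization read sequentially for fluorescein (ex 480/em 535 nm) and Texas red (ex 555/em 632 nm) probes, 5 nM and 100 nM solutions, displaced from His-ERG Ets domain (1 uM solution), pH 7.5 Tris/KCl/EDTA/DTT buffer.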

Activity change, negative = inhibition, inactive:
CCOC(=O)C1CCCN(C(=O)c2cc3cc(OC)c(OC)cc3[nH]2)C1 (configuration not stated) 0.21%
Oc1ccc(NCc2cccc(OCc3ccc(F)cc3)c2)cc1 -4.09%
CCCCCNc1nc(NCCCO)c(C#N)c2c1CN(C)CC2 -5.54%
CS(=O)(=O)c1ccc([C@@H](O)[C@@H](CF)NC(=O)C(Cl)Cl)cc1 1.25%
Cc1ccnn1-c1ccc(C(=O)OCC(=O)Nc2ccc(F)cc2)cc1 -5.48%
COCCN(C(=O)COC(=O)C1(c2ccccc2)CC1)c1c(N)n(CC(C)C)c(=O)[nH]c1=O 4.6%
COC(=O)c1cc(NC(=O)c2c(Cl)cnn2C)cc(C(=O)OC)c1 -8.91%
CCCCn1c(N)c(N(CC(C)C)C(=O)c2ccc(S(=O)(=O)N3CCC(C)CC3)cc2)c(=O)[nH]c1=O -1.13%
O=C(NNC(=O)c1ccc(S(=O)(=O)N2CCCCC2)cc1)c1ccc(F)cc1 0.197%
CCOc1ccc(CN2CCNC(=O)C2CC(=O)NCCCn2ccnc2)cc1 (configuration not stated) -11.6%
Cn1nc(C(F)(F)F)c(C#N)c1N1CCN(c2ccccn2)CC1 9.86%
COC(=O)C1=C(C)NC(C)=C(C(=O)OC)C1c1ccc(-c2cccc(Cl)c2Cl)o1 4.57%
Cc1ccc(OCCN(C)C(=O)c2cc(COc3ccc(F)cc3F)on2)cc1 -11.8%
COc1cc(CCC(=O)OCC(=O)NC2CCCC(C)C2C)cc(OC)c1OC (configuration not stated) 4.55%
O=C(COC(=O)c1cc(-c2cccc3ccccc23)nc2ccccc12)NC1CCS(=O)(=O)C1 (configuration not stated) 59.3%
COc1ccc(NC(=S)NCc2ccc3c(c2)cc(C)n3C)cc1 -0.43%
COc1ccc(-c2noc(CSc3nc4ccccc4c(=O)n3-c3ccccc3)n2)cc1 4.35%
CC1(C)CC(=O)/C(=C\c2cccc([N+](=O)[O-])c2)C(C)(C)N1 5.47%
Cc1cnc(C(=O)Nc2ccccc2-c2ccc(C)o2)cn1 2.43%
S=c1[nH]nc(Cc2n[nH]c(=S)n2-c2ccccc2)n1-c1ccccc1 -3.36%
CCOc1ccccc1N1CCN(C(=O)c2cc(S(=O)(=O)N(C)C)ccc2N2CCCC2)CC1 0.688%
COc1ccc(CCN(Cc2cccs2)S(=O)(=O)c2ccc(-n3cnnn3)c(OC)c2)cc1OC 0.377%
Cc1occc1C(=O)NNS(=O)(=O)c1ccc(Cl)cc1 -6.78%
COc1ccc(N(CCC(=O)Nc2ccccc2F)S(=O)(=O)c2ccc(C)cc2C)cc1 7.19%
O=C1COc2ccc(S(=O)(=O)Nc3ccc4c(c3)OCO4)cc2N1 2.48%
Cn1nnnc1-c1cc(Cl)cc(Cl)c1 -8.77%
COc1ccc(/C=C/c2c(-c3ccc(OC)cc3)sc3cc(OC)c(OC)cc23)cc1 -3.78%
CCc1nn2c(-c3ccco3)ccnc2c1-c1ccc(F)cc1 4.11%
Cc1nnc(SCC(=O)NNC(=O)c2ccccc2)n1-c1ccccc1 -10.7%
CCCC(NC(=O)C(C)Sc1nnnn1C1CC1)c1ccccc1 (configuration not stated) 0.633%
Cc1cc(C)cc(NC(=O)[C@H](Cc2c[nH]c3ccccc23)NC(=O)[C@@H]2Cc3ccccc3CN2)c1 -3.77%
CCC1Oc2ccccc2N(CC(=O)NC2CC2)C1=O (configuration not stated) -0.665%
COCCN1CCN(C(=O)C2CCC(=O)N(Cc3ccccc3OC)C2)CC1 (configuration not stated) 1.79%
Cc1cc2cc(CNC(=O)C(C)Oc3ccccc3)ccc2n1C (configuration not stated) 53.7%
CCOc1cccc(CNc2ccc(O)cc2)c1OCc1ccc(Cl)cc1Cl -9.02%
N#Cc1ccc(CN2CCN(C(=O)CN3C(=O)NC4(CCCC4)C3=O)CC2)cc1 -15.8%
CC(NC(=O)c1nn(C)c2c1CS(=O)(=O)c1ccccc1-2)c1ccccc1 (configuration not stated) -13.1%
N#CCCN(C(=S)NC(=O)C1CCCCC1)c1ccccc1F -3.69%
O=C(NCCc1ccc(Cl)cc1)/C(=C/c1cccnc1)NC(=O)c1ccccc1 1.66%
Cn1c(=O)c2sccc2n2c(CCCC(=O)NCc3ccco3)nnc12 6.1%
Cc1cc(/C=N/NC(N)=S)c(O)c(/C=N/NC(N)=S)c1 -3.87%
CCCn1c(SCC(=O)c2cc(C)n(-c3ccc4c(c3)OCO4)c2C)n[nH]c1=O 6.3%
CCOC(=O)C1CCN(C(=O)c2cccc(S(=O)(=O)N3CCCc4ccccc43)c2)CC1 -15.3%
CC(=O)Nc1cccc(C(=O)NC2CCCc3c2cnn3-c2ccc(C(C)(C)C)cc2)c1 (configuration not stated) 0.592%
O=C1c2ccccc2C(=O)N1CCOc1ccccc1Br -15.6%
CCc1ccc2c(c1)c(=O)c(C(=O)c1ccc(C)cc1)cn2CC(=O)Nc1ccccc1C 2.71%
O=C(COC(=O)/C=C/c1cccs1)Nc1ccc(F)cc1 1.62%
O=C1CC(Cc2ccccc2)C(=O)N1c1ccc(Cl)cn1 (configuration not stated) 8.77%
N/C(=N\N=C\c1ccc(O)c(O)c1)c1nonc1N -16.2%
COc1ccc(-c2ccc(SCC(=O)NCc3ccc4c(c3)OCO4)nn2)cc1OC -14.9%
Cc1cc(C)cc(C(=O)Nc2nnc(SCC(=O)NCC3CCCO3)s2)c1 (configuration not stated) -24.4%
CCN1C(=O)C(CC(=O)NCCc2ccccc2)N(NC(=O)c2cccnc2)C1=S (configuration not stated) -8.52%
COc1cc(NC(=O)CCNC(=O)Cn2cnc3sc4c(c3c2=O)CCCC4)cc(OC)c1OC -8.12%
Cc1ccc(/C=C/C(=O)NCc2ccncc2)cc1 -10.5%
Cc1ccccc1S(=O)(=O)N(CC(O)CN1C(=O)NC(C)(C)C1=O)c1ccccc1 (configuration not stated) -2.88%
Cc1[nH]ccc2c1[nH]c1cc(=O)ccc12 -23.3%
C=CCn1c(CNC(=O)c2ccccc2F)nnc1SCc1nc2ccccc2c(=O)[nH]1 1.69%

2 neighbouring compounds already listed, quoted:
Activity change, negative = inhibition, inactive:
CC(=O)Nc1cccc(C(=O)NC2CCCc3c2cnn3-c2ccc(C(C)(C)C)cc2)c1 (configuration not stated) 0.592%
O=C1c2ccccc2C(=O)N1CCOc1ccccc1Br -15.6%
